# Library screen at single concentrations

The chains behind the UniProt entries cited, without tags or fusion partners. Residues count along the entry.
UniProt P9WNZ1, whole entry: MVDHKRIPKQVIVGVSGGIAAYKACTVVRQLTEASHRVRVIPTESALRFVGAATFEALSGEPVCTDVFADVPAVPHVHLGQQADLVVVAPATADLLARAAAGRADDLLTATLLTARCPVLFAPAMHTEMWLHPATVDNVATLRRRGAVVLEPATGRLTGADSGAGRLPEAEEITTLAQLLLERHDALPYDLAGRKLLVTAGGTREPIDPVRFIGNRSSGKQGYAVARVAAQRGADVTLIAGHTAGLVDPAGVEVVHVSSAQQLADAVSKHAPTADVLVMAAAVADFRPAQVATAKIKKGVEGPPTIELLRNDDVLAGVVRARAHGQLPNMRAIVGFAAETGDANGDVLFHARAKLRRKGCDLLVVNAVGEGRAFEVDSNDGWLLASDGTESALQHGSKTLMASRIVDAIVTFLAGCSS
UniProt A4I591, 1-473: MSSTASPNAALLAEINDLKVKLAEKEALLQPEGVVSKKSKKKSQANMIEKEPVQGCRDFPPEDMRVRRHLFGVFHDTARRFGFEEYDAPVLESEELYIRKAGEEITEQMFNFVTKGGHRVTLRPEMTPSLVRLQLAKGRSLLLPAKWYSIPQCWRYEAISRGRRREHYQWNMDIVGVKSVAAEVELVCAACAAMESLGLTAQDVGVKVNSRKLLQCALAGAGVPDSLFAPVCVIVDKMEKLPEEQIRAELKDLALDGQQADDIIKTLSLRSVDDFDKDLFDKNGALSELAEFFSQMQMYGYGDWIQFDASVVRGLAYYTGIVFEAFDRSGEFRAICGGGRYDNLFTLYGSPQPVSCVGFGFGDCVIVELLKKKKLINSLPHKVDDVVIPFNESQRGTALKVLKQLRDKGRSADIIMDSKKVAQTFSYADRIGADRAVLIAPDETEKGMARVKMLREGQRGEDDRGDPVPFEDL

CoaBC: 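Enzyme assay of CoaBC with a phosphate dye (Biomol Green) read at 650 nm. Target: Coenzyme A biosynthesis protein CoaBC, Mycobacterium tuberculosis (UniProt P9WNZ1). Tested at 30 µM. Direction is inferred from only a few compounds that gave an IC50; most scored high, so higher reads as stronger inhibition. Most strong results did not repeat in a second test. Size under these conditions: about 67,000 compounds, about 40 of them at 50% or above in at least one test.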
LiHisRS: 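Enzyme assay of histidyl-tRNA synthetase; the read-out is not stated. Target: Histidine-tRNA ligase, Leishmania infantum (UniProt A4I591). Compounds at 30 µM. Higher reads as stronger inhibition (inferred: compounds with an IC50 in retests scored well above the rest). The assay is labelled LdHisRS but filed under L. infantum. About 69,000 compounds were tested under these conditions; 0.6% (about 410) showed 50% or more at least once.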
Leishmania in macrophages: 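Cell assay of Leishmania donovani living inside macrophages; the read-out is not stated. Concentration: 30 µM. Higher reads as stronger inhibition (inferred: compounds with an IC50 in retests scored well above the rest). Size under these conditions: about 69,000 compounds, about 1,000 of them at 50% or above in at least one test.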

Each number is a percent effect as filed.
The record does not define 0% and 100%; most values in the screen are far below 50% and negative numbers occur (in some assays of this library far below -100).
The compounds are a random part of those screened.
Two or more numbers in one place are separate tests of the same structure; such repeats can differ widely.

{"structure": "CC(C)C(Sc1nnnn1C1CC1)C(=O)NCc1ccccc1", "stereo": "configuration not stated", "CoaBC": 5.806, "LiHisRS": 15.65, "Leishmania in macrophages": 11.45}
{"structure": "CN1C(=O)C2(CC(=O)Nc3[nH]ncc32)c2ccc(F)cc21", "stereo": "configuration not stated", "CoaBC": 3.544, "LiHisRS": 2.632, "Leishmania in macrophages": "5.02 & 19.56"}
{"structure": "CC(C)C(NC(=O)Cn1ccc(=O)n(C)c1=O)c1ccc(F)cc1", "stereo": "configuration not stated", "CoaBC": 1.845, "LiHisRS": 9.375, "Leishmania in macrophages": 0.5698}
{"structure": "COc1ccc(NC(=O)CN2CCCCC2C2OCCO2)cc1", "stereo": "configuration not stated", "CoaBC": 14.68, "LiHisRS": 15.18, "Leishmania in macrophages": -1.309}
{"structure": "Cn1ncc2c1C(COCC1CC1)CN(S(C)(=O)=O)C2", "stereo": "configuration not stated", "CoaBC": 4.315, "LiHisRS": 11.76, "Leishmania in macrophages": 43.54}
{"structure": "O=C(NCC1CC2(CO1)CN(c1nncs1)C2)C1CCC1", "stereo": "configuration not stated", "CoaBC": 1.733, "LiHisRS": 11.71, "Leishmania in macrophages": 38.21}
{"structure": "COCC1c2c(cnn2CC2CC2)CCN1Cc1cc(C)on1.O=C(O)C(F)(F)F.O=C(O)C(F)(F)F", "stereo": "configuration not stated", "Leishmania in macrophages": 7.648}
{"structure": "Cc1cnc(CC2COCCN(C(=O)CN3CCCCC3)C2)cn1", "stereo": "configuration not stated", "CoaBC": -3.558, "LiHisRS": 15.6, "Leishmania in macrophages": -20.39}
{"structure": "CCCN(CCc1ccccn1)C(=O)Cn1cnnn1", "CoaBC": 9.661, "LiHisRS": 10.84, "Leishmania in macrophages": 12.46}
{"structure": "Cc1ccc(C(=O)N2C[C@@H]3OCCN(CCN4CCCC4)[C@@H]3C2)cn1", "CoaBC": 2.057, "LiHisRS": 10.53}
{"structure": "O=C(O)C(F)(F)F.[H][C@@]12CN(Cc3ccccc3)C[C@]1([H])C(=O)N(c1cncnc1)C2", "Leishmania in macrophages": 18.72}
{"structure": "Cc1cc(C)c(C(=O)N2CCC3(CCCNC3)C2)cc1C", "stereo": "configuration not stated", "CoaBC": 11.09, "LiHisRS": 1.667, "Leishmania in macrophages": 8.245}
{"structure": "CCC(O)CN1CCN(C(=O)c2cccn2Cc2cccs2)CC1", "stereo": "configuration not stated", "CoaBC": -0.2571, "LiHisRS": -25.84, "Leishmania in macrophages": 31.5}
{"structure": "O=C(Nc1ccc(I)cc1C(=O)NCCN1CCOCC1)c1cccs1", "CoaBC": -0.578, "LiHisRS": 19.64, "Leishmania in macrophages": 33.26}
{"structure": "O=C(c1ccncc1)N1CCC2(COc3ncccc3S(=O)(=O)N2)C1", "stereo": "configuration not stated", "CoaBC": -5.789, "LiHisRS": 4.138, "Leishmania in macrophages": 20.74}
{"structure": "Cc1nc(CN2CCC3(CC2)NC(=O)CC3c2ccccc2)cs1", "stereo": "configuration not stated", "CoaBC": -0.2418, "LiHisRS": 24.39}
{"structure": "CCN(CC)C(=O)CSc1ccc(C(F)(F)F)cn1", "CoaBC": -2.244, "LiHisRS": -12.33, "Leishmania in macrophages": 20.23}
{"structure": "[H][C@@]12CCN(Cc3ccco3)C[C@@]1([H])O[C@H](c1ccnc(C(C)C)n1)C2", "Leishmania in macrophages": -27.54}
{"structure": "c1ccc2oc(CN3CCCC3c3noc(C4CC4)n3)nc2c1", "stereo": "configuration not stated", "CoaBC": 6.6, "LiHisRS": 12.84, "Leishmania in macrophages": -8.632}
{"structure": "CC(Cc1ccco1)NC(=O)CCn1cccn1", "stereo": "configuration not stated", "CoaBC": "16.93 & 24.69", "LiHisRS": 21.92, "Leishmania in macrophages": 15.08}
{"structure": "FC(F)(F)c1ccc(-c2noc3c2CN(CC2CCCO2)CC3)cc1", "stereo": "configuration not stated", "CoaBC": 2.163, "LiHisRS": 33.33, "Leishmania in macrophages": -8.662}
{"structure": "O=C(NCCc1nnc2n1CCC2)N(Cc1ccco1)C1CCCC1", "CoaBC": 2.564, "LiHisRS": 15.07, "Leishmania in macrophages": 36.08}
{"structure": "O=C(NCc1cccc(F)c1)N1CCC2(CC(=O)N(c3ccsc3)C2)C1", "stereo": "configuration not stated", "CoaBC": -6.832, "LiHisRS": 25, "Leishmania in macrophages": 28.98}
{"structure": "OC(CN1CCC(CNCc2ccccn2)CC1)c1ccccc1", "stereo": "configuration not stated", "CoaBC": -11.58, "LiHisRS": 2.609, "Leishmania in macrophages": 11.64}
{"structure": "CN(C)C(=O)N1Cc2ccccc2C2(CCNCC2)C1", "CoaBC": 2.799, "LiHisRS": 19.42}
{"structure": "NS(=O)(=O)c1cnn(CCC(=O)N(C2CCCCC2)C2CC2)c1", "CoaBC": 0.8929, "LiHisRS": 8.333, "Leishmania in macrophages": 14.42}
{"structure": "N#Cc1ccsc1C(=O)N1CCCCC1Cn1cccn1", "stereo": "configuration not stated", "CoaBC": -4.701, "LiHisRS": 1.709, "Leishmania in macrophages": -30.82}
{"structure": "CCc1nc(C)ncc1C(=O)N1CCOC(c2nc(C)n[nH]2)C1", "stereo": "configuration not stated", "CoaBC": 0.8906, "LiHisRS": 2.609, "Leishmania in macrophages": 0.5293}
{"structure": "CCCC(=O)Nc1ccc(CC(=O)N(CC)CC2CCCCO2)cc1", "stereo": "configuration not stated", "CoaBC": -10.04, "LiHisRS": -4.478, "Leishmania in macrophages": 9.011}
{"structure": "CN(C(=O)Cc1ccc(NC(=O)NC2CCC2)cc1)c1ccccc1", "CoaBC": -6.613, "LiHisRS": 28.57, "Leishmania in macrophages": 23.47}
{"structure": "CN(C)CC(=O)N1CCC2(CC1)CN(c1ccsc1)C(=O)CO2", "CoaBC": "8.466 & 22.28", "LiHisRS": 2.19}
{"structure": "[H][C@]12CC[C@]([H])(CN(S(=O)(=O)N(C)C)C1)N(Cc1ccc(F)c(F)c1)C2", "Leishmania in macrophages": 23.34}
{"structure": "COC(=O)c1ccc(C2SC(C)=Nc3c2c(=O)[nH]n3C2CCCC2)cc1", "stereo": "configuration not stated", "CoaBC": 2.058, "LiHisRS": 18.48, "Leishmania in macrophages": 20.01}
{"structure": "O=C(NC1CCCN(c2ccc(OC(F)F)cc2)C1)c1cc[nH]n1", "stereo": "configuration not stated", "LiHisRS": 20, "Leishmania in macrophages": -11.37}
{"structure": "COc1ccccc1Oc1ncccc1CNC(=O)C(O)C(F)(F)F", "stereo": "configuration not stated", "CoaBC": 1.775, "LiHisRS": 6.061, "Leishmania in macrophages": 16.69}
{"structure": "COc1ccc(-n2nnnc2C(C)(C)Nc2ccc(C)cc2C)cc1", "CoaBC": -4.277, "LiHisRS": -3.571, "Leishmania in macrophages": 14.51}
{"structure": "Cc1nn(C)c2cn(C(C)C(=O)NCc3cccnc3)nc12", "stereo": "configuration not stated", "CoaBC": 5.249, "LiHisRS": 5.825, "Leishmania in macrophages": 8.191}
{"structure": "COc1nccnc1N1CCN(Cc2ccc(F)cc2)C(=O)C1", "CoaBC": -4.405, "LiHisRS": 17.81, "Leishmania in macrophages": -13.46}

5 of the entries, repeated:

- CN1C(=O)C2(CC(=O)Nc3[nH]ncc32)c2ccc(F)cc21 (configuration not stated) : CoaBC: 3.544%; LiHisRS: 2.632%; Leishmania in macrophages: 5.02% & 19.56%
- [H][C@@]12CCN(Cc3ccco3)C[C@@]1([H])O[C@H](c1ccnc(C(C)C)n1)C2 : Leishmania in macrophages: -27.54%
- Cc1cc(C)c(C(=O)N2CCC3(CCCNC3)C2)cc1C (configuration not stated) : CoaBC: 11.09%; LiHisRS: 1.667%; Leishmania in macrophages: 8.245%
- COc1ccccc1Oc1ncccc1CNC(=O)C(O)C(F)(F)F (configuration not stated) : CoaBC: 1.775%; LiHisRS: 6.061%; Leishmania in macrophages: 16.69%
- CCCC(=O)Nc1ccc(CC(=O)N(CC)CC2CCCCO2)cc1 (configuration not stated) : CoaBC: -10.04%; LiHisRS: -4.478%; Leishmania in macrophages: 9.011%

From ChEMBL document CHEMBL3988442, “University of Dundee, Small-Polar-MMV Screening Library” (2021).